Measurements reported in patent US9938322B2 (priority 2013, dated 2018).
Where no end group is shown, it is not given here. [ ]: non-standard residue; d: D form. Cha = N[C@@H](CC1CCCCC1)C(=O)O; Agp = N=C(N)NC[C@H](N)C(=O)O; Tle = CC(C)(C)[C@H](N)C(=O)O; dDab = NCC[C@@H](N)C(=O)O; Orn = NCCC[C@H](N)C(=O)O; Dab = NCC[C@H](N)C(=O)O

Experiment: general procedure: Fmoc solid-phase peptide synthesis; preloaded Fmoc-amino acid 2-chlorotrityl resins
Settings: whole synthesis, scale of the general procedure approximately 80 mg resin per vessel

First: Trp-Ala-Cha-Dab-Orn-^DDab-Dab-Trp-Dab-tBuGly-Ala-Ala(iPrUr)-^DPro-Pro
Second: Trp-Ala-Cha-Dab-Orn-^DDab-Dab-Trp-Dab-tBuGly-Tza-Ser-^DPro-Pro
The “purity (crude or final not stated)” value of the first is higher: 93% for the first, 91% for the second.

Compared with “Trp-Ala-Chg-Dab-Orn-^DDab-Dab-Trp-Dab-tBuGly-Ser-Ser-^DPro-Pro((3S)OH)”, “Trp-Dab(2PyrMe)-Cha-Dab-Orn-^DDab-Dab-Trp-Dab-tBuGly-Ala-Ser-^DPro-Pro” is lower in “purity (crude or final not stated)” value: 97% for the first, 90% for the second.

Going from “Trp-Dap(iPr)-Cha-Dab-Orn(iPr)-^DDab-Dab-Trp-Dab-tBuGly-Ser-Ser-^DPro-Pro” to “Trp-Dap(iPr)-Cha-Dab-Orn-^DDab-Dab-Trp-Hse-tBuGly-Ala-Ser-^DPro-Pro”, the “purity (crude or final not stated)” value rises from 88% to 96%.

Compared with “Trp-Dap-Cha-Dab-Orn-Pip-Dab-Trp-Dab-tBuGly-Ala-Ser-^DPro-Pro”, “Tza-Ser-Cha-Dab-Orn-^DDab-Dab-Trp-Dab-tBuGly-Ala-Ser-^DPro-Pro” is lower in “purity (crude or final not stated)” value: 93% for the first, 87% for the second.

Compared with “VA[Cha][Dab][Orn][dDab][Dab]W[Dab][Tle]AS[dP]P”, “VS[Cha][Dab][Orn][dDab][Dab]W[Dab][Tle]AS[dP]P” is higher in “purity (crude or final not stated)” value: 88% for the first, 92% for the second.

In the case of “WA[Cha][Dab][Orn][dDab][Dab]W[Dab][Tle][Agp]S[dP]P”, the “purity (crude or final not stated)” value is reported as 85%.
